Experimental data taken from patent publication US20230212202A1, “TREATMENT OF MGMT DEFICIENT CANCER WITH 2-FLUOROETHYL-SUBSTITUTED NITROSOUREAS AND OTHER COMPOUNDS” (YALE UNIVERSITY, priority 2021, published 2023).
For some assays here: For at least one compound, name, drawing or mass did not settle the structure. Some results were stated once for a whole list of compounds, not compound by compound.

Columns and labels:
[1] = tested on: LN229 MGMT-/MMR+ cells; assay: IR alkaline comet assay; type: cell-based, human
[2] = tested on: LN229 MGMT-/MMR- cells; assay: IR alkaline comet assay; type: cell-based, human; conditions: 200 µM, 2-24 h
[3] = tested on: LN229 MGMT+/-, MMR+/- cells; assay: Micronuclei analysis; type: cell-based, human; conditions: 20 µM, 48 h
Description: Micronuclei Analysis. An automated image analysis pipeline was developed by YCMD using InCell Analyzer software to quantify micronuclei formation. Nuclei and micronuclei were segmented based on Hoechst nucleic acid dye staining channel. A perinuclear margin was applied around the nuclei to approximate the extent of the cytoplasm and identify micronuclei associated with the parent nucleus. Cells with nuclei associated with at least 1 micronucleus were considered positive.

[4] = tested on: LN229 MGMT+/-, MMR+/- cells; assay: Clonogenic survival assay; type: cell-based, human
Experimental: Clonogenic Cell Survival Assay. Cells were trypsinized, washed, counted, and diluted in a medium containing various concentrations of drug. They were then immediately seeded in six-well plates in triplicate at three-fold dilutions, ranging from 9000 to 37 cells per well. Depending on colony size, these plates were kept in the incubator for 10 to 14 days. After incubation, colonies were washed in phosphate-buffered saline (PBS), stained with crystal violet, counted, and quantified.

[5] = tested on: LN229 MGMT+/-, MMR+/- cells; assay: Cell cycle analysis; type: cell-based, human; conditions: 20 µM
Experimental: Cell Cycle Analysis. Cell cycle analysis was performed using integrated Hoechst nucleic acid dye fluorescence intensity as previously described (51). Briefly, integrated Hoechst fluorescence intensity was log2 transformed and histograms from DMSO-treated cells were used to identify the centers of the 2 N and 4 N DNA peaks. These values were used to normalize the 2 N DNA peak to 1 and the 4 N DNA peak to 2. Cells were then classified by normalized log2 DNA content as G1 (0.75-1.25), S (1.25-1.75), or G2 (1.75-2.5) phase cells. The percentage of cells within each phase of the cell cycle was determined for each treatment condition. The three sets of Hoechst-stained cells corresponding to the three separate DNA foci stains were treated as three independent analyses.

[6] = tested on: LN229 MGMT-/MMR+ flank tumors; conditions: 5 mg/kg MWF × 3 weeks, P.O.
[7] = tested on: LN229 MGMT-/MMR- intracranial tumors; assay: Intracranial tumor model; type: in vivo, mouse; conditions: 25 mg/kg IP M-F × 1 week
[8] = tested on: FANCD2 ubiquitination in LN229 MGMT+/-, MMR+/- cells; assay: Western blot analysis of FANCD2 ubiquitination; type: cell-based, human
Experimental: (§1) Western Blotting. For phospho-protein analysis experiments, cells were lysed in 1X RIPA buffer (Cell Signaling Technology, #9806) supplemented with 1X Protease Inhibitor Cocktail (Roche) and 1X PhosSTOP Phosphatase Inhibitor Cocktail (Sigma). For all other western blot analyses, cells were lysed in lysis buffer (50 mM HEPES, 250 mM NaCl, 5 mM EDTA, 1% NP-40) supplemented with 1X Protease Inhibitor Cocktail (Roche). The de-ubiquitination inhibitor N-ethylmaleimide (NEM, 4 mM) was added in FANCD2 ubiquitination analysis experiments. Proteins were separated using NuPAGE 4-12% Bis-Tris or 3-8% Tris-Acetate Gels (Invitrogen) and transferred to Immobilon-P PVDF membrane (Millipore) for western blotting. Membranes were blocked with 5% milk in TBS-T for 1 h prior to primary antibody addition overnight at 4° C. […] Where shown, bands were quantified using ImageJ software.

[9] = tested on: LN229 MGMT-/MMR+ cells; assay: Genomic DNA denaturing gel electrophoresis; type: cell-based, human; conditions: 200 µM, 24 h
Experimental: Genomic DNA Denaturing Gel Electrophoresis. Assay was adapted from N. Bossuet-Greif et al., The Colibactin Genotoxin Generates DNA Interstrand Cross-Links in Infected Cells. mBio 9, (2018). Cells were trypsinized, washed with 1X PBS, and stored at -80° C. prior to processing. Genomic DNA was extracted with the DNeasy Blood & Tissue Kit (Qiagen) per kit protocol. A 0.7% agarose gel was prepared in 100 mM NaCl-2mM EDTA (pH 8) and soaked in 40 mM NaOH-1 mM EDTA running buffer for 2 h. Genomic DNA (400 ng/well) was then loaded in 1X BlueJuice loading buffer (Invitrogen) and subjected to electrophoresis at 2 V/cm for 30 min, followed by 3 V/cm for 2 h. The gel was neutralized in 150 mM NaCl-100 mM Tris (pH 7.4) for 30 min, twice, and then stained with 1X SYBR Gold in 150 mM NaCl-100 mM Tris (pH 7.4) for 90 min. Imaging was performed on a ChemiDoc XRS+ Molecular Imager (Bio-Rad).

[10] = dose of 20 µM; cited from earlier work
[11] = tested on: CHK1 and CHK2 phosphorylation in LN229 MGMT+/-, MMR+/- cells; assay: Western blotting of CHK1 and CHK2 phosphorylation; type: cell-based, human; conditions: 20 µM, 24 or 48 h
Experimental: as §1

[12] = tested on: LN229 MGMT+/-, MMR+/- cells; assay: Short-term cell viability assay, four isogenic LN229 glioblastoma cell lines; type: cell-based, human

| SMILES | IR-induced comet tail (ICL detection) ([1]; 200 µM, 24 h, 10 Gy) | comet tailing in the absence of IR ([1]; TMZ, KL-50 200 µM, MMC 0.1 or 50 µM) | DNA damage in unirradiated samples, time course ([2]; 0 Gy) | DNA mobility after IR, time course ([2]; 10 Gy) | micronuclei formation [3] | clonogenic survival, MGMT+ cells ([4]; LN229 MGMT+ cells) | clonogenic survival, MGMT- cells ([4]; LN229 MGMT- cells, MMR+/-) | G2 arrest ([5]; MGMT+/MMR+ cells) | G2 arrest ([5]; MGMT-/MMR- cells) | tumor growth [6] | intracranial tumor growth [7] | FANCD2 ubiquitination [8] | crosslinked genomic DNA [9] | O^6MeG (3) adducts per cell [10] | CHK1 and CHK2 phosphorylation [11] | selectivity for MGMT-deficient cells [12] |
| --- | --- | --- | --- | --- | --- | --- | --- | --- | --- | --- | --- | --- | --- | --- | --- | --- |
| Cn1nnc2c(C(N)=O)ncn2c1=O [TMZ, temozolomide, reference compound] | did not reduce DNA migration following IR | induced tailing | maximal damage at 2 h | did not induce a statistically significant decrease in DNA migration within 24 h | micronuclei formation was not observed in MGMT-/MMR- cells | negligible activity | robust tumor cell killing in MGMT-, MMR+ cells that was abolished in isogenic cells lacking MMR | moderate G2 arrest | absent | suppressed tumor growth | only transiently suppressed tumor growth | induced FANCD2 ubiquitination but only in MGMT-/MMR+ cells | no evidence of ICL induction | 0,600 | only induced phospho-CHK1 and -CHK2 in MGMT-/MMR+ cells |  |
| NC(=O)c1ncn2c(=O)n(CCCl)nnc12 [MTZ, mitozolomide, reference compound] |  |  |  |  |  |  |  |  |  |  |  |  |  |  |  | 4-7 fold |
| O=NN(CCCl)C(=O)NC1CCCCC1 [Lomustine, lomustine] |  |  |  |  |  |  |  |  |  |  |  |  |  |  |  | 4-7 fold |
